Source: the supplement of paper PMC10849652
The other results are listed elsewhere or left out.

Chains of the proteins cited; added tags and fusions are not shown. Lines headed by an entry give the natural chain unless they say otherwise; changes in a name come on top.
UniProt Q9H3P2, whole entry, looked up: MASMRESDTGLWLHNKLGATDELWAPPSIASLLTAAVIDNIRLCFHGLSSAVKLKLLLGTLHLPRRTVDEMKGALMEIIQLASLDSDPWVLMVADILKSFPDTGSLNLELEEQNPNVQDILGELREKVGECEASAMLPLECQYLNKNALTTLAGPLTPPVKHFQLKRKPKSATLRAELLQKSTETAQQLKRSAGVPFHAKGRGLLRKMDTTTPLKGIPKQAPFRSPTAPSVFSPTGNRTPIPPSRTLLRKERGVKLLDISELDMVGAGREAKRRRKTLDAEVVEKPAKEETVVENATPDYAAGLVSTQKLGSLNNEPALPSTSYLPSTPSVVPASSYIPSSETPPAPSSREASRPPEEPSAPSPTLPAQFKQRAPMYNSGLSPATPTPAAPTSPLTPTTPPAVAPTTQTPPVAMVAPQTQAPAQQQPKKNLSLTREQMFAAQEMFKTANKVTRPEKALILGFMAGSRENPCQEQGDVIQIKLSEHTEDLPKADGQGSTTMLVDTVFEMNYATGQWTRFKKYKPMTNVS
UniProt O94916: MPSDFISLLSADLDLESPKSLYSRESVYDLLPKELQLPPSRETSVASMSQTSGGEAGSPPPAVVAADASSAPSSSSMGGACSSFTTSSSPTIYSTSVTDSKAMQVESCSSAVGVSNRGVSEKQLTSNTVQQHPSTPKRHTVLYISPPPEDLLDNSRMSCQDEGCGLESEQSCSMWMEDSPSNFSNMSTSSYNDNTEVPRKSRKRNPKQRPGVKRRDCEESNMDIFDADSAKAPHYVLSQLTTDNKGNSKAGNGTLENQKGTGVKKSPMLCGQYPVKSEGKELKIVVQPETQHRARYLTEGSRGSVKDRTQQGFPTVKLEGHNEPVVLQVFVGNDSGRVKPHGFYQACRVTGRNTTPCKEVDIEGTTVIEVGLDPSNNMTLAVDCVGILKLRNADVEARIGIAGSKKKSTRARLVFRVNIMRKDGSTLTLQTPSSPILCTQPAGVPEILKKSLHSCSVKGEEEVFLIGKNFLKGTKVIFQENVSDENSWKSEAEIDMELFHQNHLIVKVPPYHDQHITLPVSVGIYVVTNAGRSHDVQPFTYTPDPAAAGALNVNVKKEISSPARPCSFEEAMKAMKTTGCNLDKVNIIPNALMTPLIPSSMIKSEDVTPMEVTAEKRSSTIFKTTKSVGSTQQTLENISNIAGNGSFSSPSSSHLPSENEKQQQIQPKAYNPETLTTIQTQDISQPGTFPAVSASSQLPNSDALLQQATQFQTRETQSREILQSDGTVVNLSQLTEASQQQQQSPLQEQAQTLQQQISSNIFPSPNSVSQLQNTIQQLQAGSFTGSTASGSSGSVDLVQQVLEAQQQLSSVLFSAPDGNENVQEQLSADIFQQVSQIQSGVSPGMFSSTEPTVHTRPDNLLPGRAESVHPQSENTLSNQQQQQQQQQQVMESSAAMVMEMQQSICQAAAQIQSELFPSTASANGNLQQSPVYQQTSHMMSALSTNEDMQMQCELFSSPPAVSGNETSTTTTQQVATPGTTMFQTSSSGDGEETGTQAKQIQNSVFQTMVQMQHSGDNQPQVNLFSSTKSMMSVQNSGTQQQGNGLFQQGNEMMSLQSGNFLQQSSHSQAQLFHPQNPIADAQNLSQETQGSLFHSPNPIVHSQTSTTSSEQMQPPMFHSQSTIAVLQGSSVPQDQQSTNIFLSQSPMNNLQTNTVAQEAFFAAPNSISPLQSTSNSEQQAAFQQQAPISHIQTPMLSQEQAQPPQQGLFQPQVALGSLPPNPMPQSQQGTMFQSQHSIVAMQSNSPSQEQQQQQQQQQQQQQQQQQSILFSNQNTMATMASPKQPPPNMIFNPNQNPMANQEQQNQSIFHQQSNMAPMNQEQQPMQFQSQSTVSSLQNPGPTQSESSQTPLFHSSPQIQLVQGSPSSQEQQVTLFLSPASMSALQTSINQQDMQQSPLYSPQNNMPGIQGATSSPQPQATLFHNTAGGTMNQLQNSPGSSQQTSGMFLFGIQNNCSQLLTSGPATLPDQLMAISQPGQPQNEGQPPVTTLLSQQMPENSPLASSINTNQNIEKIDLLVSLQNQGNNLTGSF
UniProt Q9Y3C1: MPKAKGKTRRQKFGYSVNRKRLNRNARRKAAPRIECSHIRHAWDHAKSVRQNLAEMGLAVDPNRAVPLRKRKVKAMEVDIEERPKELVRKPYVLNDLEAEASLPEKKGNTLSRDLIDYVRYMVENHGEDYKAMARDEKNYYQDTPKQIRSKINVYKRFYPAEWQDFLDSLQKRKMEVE
UniProt P10588: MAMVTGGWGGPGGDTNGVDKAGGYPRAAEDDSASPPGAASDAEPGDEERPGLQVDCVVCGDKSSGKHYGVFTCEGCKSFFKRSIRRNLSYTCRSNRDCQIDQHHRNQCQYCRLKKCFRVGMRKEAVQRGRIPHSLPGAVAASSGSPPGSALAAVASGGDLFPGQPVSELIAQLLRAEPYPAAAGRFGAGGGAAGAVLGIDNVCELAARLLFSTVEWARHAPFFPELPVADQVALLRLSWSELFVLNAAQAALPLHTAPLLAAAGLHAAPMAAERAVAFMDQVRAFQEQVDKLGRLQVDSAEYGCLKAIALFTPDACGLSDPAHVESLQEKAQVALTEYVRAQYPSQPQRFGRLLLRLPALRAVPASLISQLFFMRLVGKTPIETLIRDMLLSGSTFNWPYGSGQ
UniProt Q9BYG3: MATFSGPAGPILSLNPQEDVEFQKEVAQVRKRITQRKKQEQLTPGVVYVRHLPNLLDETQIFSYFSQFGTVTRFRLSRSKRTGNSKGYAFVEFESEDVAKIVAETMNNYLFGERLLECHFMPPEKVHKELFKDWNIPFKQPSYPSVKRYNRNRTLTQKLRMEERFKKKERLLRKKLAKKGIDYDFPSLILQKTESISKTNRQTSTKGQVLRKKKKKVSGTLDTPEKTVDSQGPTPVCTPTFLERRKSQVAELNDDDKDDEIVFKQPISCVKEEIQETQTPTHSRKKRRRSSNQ
UniProt P46087: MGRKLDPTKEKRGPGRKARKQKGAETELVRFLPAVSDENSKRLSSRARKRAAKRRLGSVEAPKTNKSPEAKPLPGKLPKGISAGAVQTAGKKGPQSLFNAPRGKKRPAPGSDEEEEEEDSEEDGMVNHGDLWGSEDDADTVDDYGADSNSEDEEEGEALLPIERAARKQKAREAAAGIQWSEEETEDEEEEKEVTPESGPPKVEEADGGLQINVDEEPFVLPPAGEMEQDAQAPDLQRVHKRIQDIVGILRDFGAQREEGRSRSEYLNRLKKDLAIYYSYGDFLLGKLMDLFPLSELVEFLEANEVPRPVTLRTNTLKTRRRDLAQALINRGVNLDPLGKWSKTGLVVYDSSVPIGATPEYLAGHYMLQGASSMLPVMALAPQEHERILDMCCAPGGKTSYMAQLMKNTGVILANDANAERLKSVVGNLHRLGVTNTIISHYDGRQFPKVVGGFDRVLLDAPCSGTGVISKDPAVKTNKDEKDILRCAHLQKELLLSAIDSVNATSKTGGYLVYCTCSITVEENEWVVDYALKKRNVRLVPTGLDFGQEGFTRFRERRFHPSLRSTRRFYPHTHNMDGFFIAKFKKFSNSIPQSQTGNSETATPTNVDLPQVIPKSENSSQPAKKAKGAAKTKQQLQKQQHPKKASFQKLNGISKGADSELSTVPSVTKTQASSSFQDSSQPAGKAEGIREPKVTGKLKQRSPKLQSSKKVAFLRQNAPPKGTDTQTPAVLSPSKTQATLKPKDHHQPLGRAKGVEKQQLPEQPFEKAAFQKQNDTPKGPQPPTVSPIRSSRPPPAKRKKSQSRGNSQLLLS
UniProt O60361, whole entry, looked up: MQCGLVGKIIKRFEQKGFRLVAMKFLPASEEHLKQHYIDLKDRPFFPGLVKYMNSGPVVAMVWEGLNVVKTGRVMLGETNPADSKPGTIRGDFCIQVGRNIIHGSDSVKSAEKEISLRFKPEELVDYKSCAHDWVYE
UniProt O43847: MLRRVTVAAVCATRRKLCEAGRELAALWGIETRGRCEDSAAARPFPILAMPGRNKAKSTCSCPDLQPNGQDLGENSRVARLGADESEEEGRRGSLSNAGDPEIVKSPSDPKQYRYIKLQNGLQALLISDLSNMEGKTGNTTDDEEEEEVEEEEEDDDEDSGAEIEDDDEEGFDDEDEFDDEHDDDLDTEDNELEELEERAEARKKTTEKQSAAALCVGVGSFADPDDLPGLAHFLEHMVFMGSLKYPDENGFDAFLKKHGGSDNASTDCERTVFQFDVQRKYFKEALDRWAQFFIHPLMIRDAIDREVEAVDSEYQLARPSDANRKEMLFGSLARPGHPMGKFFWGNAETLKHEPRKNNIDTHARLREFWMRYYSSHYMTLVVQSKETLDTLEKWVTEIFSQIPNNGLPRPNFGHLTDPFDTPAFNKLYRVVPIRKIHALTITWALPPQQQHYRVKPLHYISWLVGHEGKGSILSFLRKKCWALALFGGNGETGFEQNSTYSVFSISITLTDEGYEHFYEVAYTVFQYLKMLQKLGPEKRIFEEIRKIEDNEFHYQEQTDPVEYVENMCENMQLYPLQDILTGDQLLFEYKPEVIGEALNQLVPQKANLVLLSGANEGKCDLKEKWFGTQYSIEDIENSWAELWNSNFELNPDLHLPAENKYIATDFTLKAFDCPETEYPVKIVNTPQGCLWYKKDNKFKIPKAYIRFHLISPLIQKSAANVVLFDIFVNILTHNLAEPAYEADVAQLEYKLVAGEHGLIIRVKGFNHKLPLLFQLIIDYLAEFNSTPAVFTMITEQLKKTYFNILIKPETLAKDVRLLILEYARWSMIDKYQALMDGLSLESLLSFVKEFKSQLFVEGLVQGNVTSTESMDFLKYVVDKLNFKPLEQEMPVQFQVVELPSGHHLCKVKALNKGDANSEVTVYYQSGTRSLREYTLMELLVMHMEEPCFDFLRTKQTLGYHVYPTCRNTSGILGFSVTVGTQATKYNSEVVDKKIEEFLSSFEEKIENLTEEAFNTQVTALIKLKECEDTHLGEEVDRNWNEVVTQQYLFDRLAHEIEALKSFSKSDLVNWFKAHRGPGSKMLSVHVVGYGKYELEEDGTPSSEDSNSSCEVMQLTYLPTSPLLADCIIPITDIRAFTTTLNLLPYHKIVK
UniProt O75607: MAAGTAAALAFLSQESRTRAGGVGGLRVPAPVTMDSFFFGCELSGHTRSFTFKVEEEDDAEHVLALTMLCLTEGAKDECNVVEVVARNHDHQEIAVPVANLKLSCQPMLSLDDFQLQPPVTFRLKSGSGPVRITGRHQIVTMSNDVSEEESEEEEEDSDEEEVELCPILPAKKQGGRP
UniProt P69849: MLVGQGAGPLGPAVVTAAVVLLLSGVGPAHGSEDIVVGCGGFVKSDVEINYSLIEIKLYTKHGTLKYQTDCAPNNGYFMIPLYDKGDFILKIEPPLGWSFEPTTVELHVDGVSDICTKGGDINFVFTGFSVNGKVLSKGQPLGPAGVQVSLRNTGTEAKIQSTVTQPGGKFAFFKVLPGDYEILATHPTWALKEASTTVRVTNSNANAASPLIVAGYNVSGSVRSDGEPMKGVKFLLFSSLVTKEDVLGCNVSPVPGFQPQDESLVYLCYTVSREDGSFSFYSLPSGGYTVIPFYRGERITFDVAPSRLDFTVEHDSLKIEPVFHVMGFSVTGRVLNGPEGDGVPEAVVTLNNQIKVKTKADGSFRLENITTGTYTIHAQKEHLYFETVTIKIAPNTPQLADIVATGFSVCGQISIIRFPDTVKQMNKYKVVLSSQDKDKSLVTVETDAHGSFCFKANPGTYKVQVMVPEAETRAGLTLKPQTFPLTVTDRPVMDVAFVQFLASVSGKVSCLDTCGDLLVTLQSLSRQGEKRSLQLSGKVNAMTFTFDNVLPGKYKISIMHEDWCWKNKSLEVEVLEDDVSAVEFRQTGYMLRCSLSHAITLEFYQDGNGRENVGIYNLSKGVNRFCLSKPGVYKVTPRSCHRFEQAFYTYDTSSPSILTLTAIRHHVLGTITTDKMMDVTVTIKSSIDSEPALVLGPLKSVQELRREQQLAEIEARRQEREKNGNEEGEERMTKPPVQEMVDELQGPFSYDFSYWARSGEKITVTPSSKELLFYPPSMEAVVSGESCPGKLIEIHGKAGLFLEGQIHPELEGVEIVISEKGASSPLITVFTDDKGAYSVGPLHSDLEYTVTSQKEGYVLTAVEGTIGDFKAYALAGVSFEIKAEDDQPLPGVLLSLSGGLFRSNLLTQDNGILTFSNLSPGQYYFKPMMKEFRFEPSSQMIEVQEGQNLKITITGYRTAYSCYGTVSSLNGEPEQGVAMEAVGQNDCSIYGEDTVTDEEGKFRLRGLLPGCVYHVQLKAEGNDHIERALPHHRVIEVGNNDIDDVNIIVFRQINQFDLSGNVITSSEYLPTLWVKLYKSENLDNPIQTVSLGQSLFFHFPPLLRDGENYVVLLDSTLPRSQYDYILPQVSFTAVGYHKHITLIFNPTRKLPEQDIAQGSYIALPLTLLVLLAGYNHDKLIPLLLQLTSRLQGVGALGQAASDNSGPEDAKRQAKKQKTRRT

Key:
Test in all cases: log2 fold change, soluble protein after heating vs DMSO (PISA); higher = thermal stabilisation; K562 cells, 10 uM, 30 min; active = over 0.2 and 3.5 SD of the protein, either way, in both replicates (recomputed)
[1] = compound: CS(=O)(=O)c1ccc(-c2cnc(N)c(C(=O)Nc3ccccc3)n2)cc1
In short: (§1)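 K562 cells at 2×10^6 cells/mL were treated for 30 min with 10 μM compound, and aliquots were heated for 3 min over 48°C-58°C before pooling. Extraction used PBS with 0.5% NP-40 at 4°C, and soluble protein was the supernatant after 21,000xg for 90 min, measured by TMTpro 16plex LC-MS/MS with channel sums equalised. Thermal stability values, relative to control samples and from duplicates, are log2 fold changes.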

crizotinib = compound: C[C@@H](Oc1cc(-c2cnn(C3CCNCC3)c2)cnc1N)c1c(Cl)ccc(F)c1Cl [crizotinib]
In short: as §1

[2] = compound: C[C@@H]1COCCN1C2=NC(=NC(=C2)C3(CC3)S(=O)(=O)C)C4=C5C=CNC5=CC=C4
In short: as §1

[3] = compound: C[C@H](C1=CC=C(C=C1)C(=O)NC2=C3C=CNC3=NC=C2)N
In short: as §1

duvelisib = compound: C[C@H](Nc1ncnc2nc[nH]c12)c1cc2cccc(Cl)c2c(=O)n1-c1ccccc1 [duvelisib]
In short: as §1

gandotinib = compound: Cc1cc(Nc2cc(CN3CCOCC3)c3nc(C)c(Cc4ccc(Cl)cc4F)n3n2)n[nH]1 [gandotinib]
In short: as §1

tozasertib = compound: Cc1cc(Nc2cc(N3CCN(C)CC3)nc(Sc3ccc(NC(=O)C4CC4)cc3)n2)n[nH]1 [tozasertib]
In short: as §1

[4] = compound: Cc1cc(SCc2sc(-c3ccc(C(F)(F)F)cc3)nc2C)ccc1OCC(=O)O
In short: as §1

doramapimod = compound: Cc1ccc(-n2nc(C(C)(C)C)cc2NC(=O)Nc2ccc(OCCN3CCOCC3)c3ccccc23)cc1 [doramapimod]
In short: as §1

ispinesib = compound: Cc1ccc(C(=O)N(CCCN)[C@@H](c2nc3cc(Cl)ccc3c(=O)n2Cc2ccccc2)C(C)C)cc1 [ispinesib]
In short: as §1

bafetinib = compound: Cc1ccc(NC(=O)c2ccc(CN3CC[C@H](N(C)C)C3)c(C(F)(F)F)c2)cc1Nc1nccc(-c2cncnc2)n1 [bafetinib]
In short: as §1

[5] = compound: Cc1cccc(CC(=O)N2CCc3c2ccc(-c2cn(C)c4ncnc(N)c24)c3F)n1
In short: as §1

nilotinib = compound: Cc1cn(-c2cc(NC(=O)c3ccc(C)c(Nc4nccc(-c5cccnc5)n4)c3)cc(C(F)(F)F)c2)cn1 [nilotinib]
In short: as §1

[6] = compound: Cc1nc(Nc2n[nH]c3c2CN(C(=O)N[C@H](CN(C)C)c2ccccc2)C3(C)C)c2sccc2n1
In short: as §1

dasatinib = compound: Cc1nc(Nc2ncc(C(=O)Nc3c(C)cccc3Cl)s2)cc(N2CCN(CCO)CC2)n1 [dasatinib]
In short: as §1

[7] = compound: Cc1ncc(-c2ccnc(Nc3ccc(S(C)(=O)=O)cc3)n2)n1C(C)C
In short: as §1

[8] = compound: Cn1cc(-c2ccc3c(c2)CCN3C(=O)Cc2cccc(C(F)(F)F)c2)c2c(N)ncnc21
In short: as §1

[9] = compound: Cn1cc(-c2ccc3nnc(C(F)(F)c4ccc5ncccc5c4)n3n2)cn1
In short: as §1

tipifarnib = compound: Cn1cncc1[C@@](N)(c1ccc(Cl)cc1)c1ccc2c(c1)c(-c1cccc(Cl)c1)cc(=O)n2C [tipifarnib]
In short: as §1

mubritinib = compound: FC(F)(F)c1ccc(/C=C/c2nc(COc3ccc(CCCCn4ccnn4)cc3)co2)cc1 [mubritinib]
In short: as §1

Measured: log2 fold change

NFIC (UniProt P08651)
inactive: [1] -0.02 | crizotinib 0.034 | [2] -0.007 | [3] 0.032 | duvelisib 0.1 | gandotinib 0.079 | tozasertib 0.009 | [4] -0.084 | doramapimod 0.036 | ispinesib -0.052 | bafetinib 0.005 | [5] 0.008 | nilotinib 0.013 | [6] 0.045 | dasatinib 0.119 | [7] -0.051 | [8] 0.004 | [9] -0.037 | tipifarnib 0.042 | mubritinib 0

NELFA (UniProt Q9H3P2)
inactive: [1] -0.01 | crizotinib 0.082 | [2] 0.198 | [3] -0.011 | gandotinib 0.004 | [4] 0.234 | doramapimod -0.014 | ispinesib -0.068 | bafetinib -0.145 | [5] 0.027 | nilotinib 0.032 | [6] -0.311 | dasatinib -0.112 | [7] -0.152 | [8] 0.015 | [9] 0.018 | tipifarnib -0.141 | mubritinib -0.034

NFAT5 isoform 5 (UniProt O94916)
inactive: [1] 0.052 | crizotinib 0.061 | [2] 0.063 | [3] 0.086 | duvelisib 0.028 | gandotinib -0.032 | tozasertib 0 | [4] -0.142 | doramapimod 0.101 | bafetinib -0.086 | [5] 0.012 | nilotinib -0.174 | [6] -0.007 | dasatinib 0.083 | [7] -0.037 | [8] -0.073 | tipifarnib 0.112 | mubritinib 0.026

NOP16 (UniProt Q9Y3C1)
inactive: [1] 0.058 | crizotinib 0.002 | [2] -0.325 | [3] 0.464 | duvelisib -0.15 | gandotinib 0.376 | tozasertib 0.04 | [4] 0.063 | doramapimod 0.27 | ispinesib -0.093 | bafetinib 0.102 | [5] -0.147 | nilotinib 0.026 | [6] 0.14 | dasatinib 0.218 | [7] 0.006 | [8] -0.357 | [9] -0.156 | tipifarnib 0.181 | mubritinib -0.161

NEMP1 (UniProt O14524)
active: ispinesib -0.354
inactive: [1] -0.058 | crizotinib -0.121 | [2] -0.035 | [3] 0.011 | gandotinib -0.1 | [4] -0.014 | doramapimod 0.032 | bafetinib -0.147 | [5] 0.065 | nilotinib -0.186 | [6] 0.004 | dasatinib -0.009 | [7] 0.003 | [8] -0.007 | [9] -0.025 | tipifarnib 0 | mubritinib 0.036

NFKBIE (UniProt O00221)
inactive: [1] -0.022 | crizotinib -0.019 | [2] -0.012 | [3] 0.075 | duvelisib 0.003 | gandotinib -0.087 | tozasertib 0.049 | [4] 0.017 | doramapimod -0.026 | ispinesib 0.062 | [5] 0.038 | nilotinib 0.019 | [6] -0.345 | dasatinib 0.029 | [7] 0.027 | [8] 0.021 | [9] -0.074 | tipifarnib 0.027 | mubritinib 0.15

NR2F6 (UniProt P10588)
inactive: [1] -0.104 | crizotinib -0.023 | [2] 0.123 | [3] -0.107 | duvelisib 0.052 | gandotinib 0.053 | tozasertib -0.081 | [4] -0.086 | doramapimod -0.003 | ispinesib 0.074 | bafetinib 0.027 | [5] -0.029 | nilotinib -0.103 | [6] -0.054 | dasatinib -0.036 | [7] 0.03 | [8] 0.001 | [9] -0.159 | tipifarnib 0.084 | mubritinib 0.062

NIPSNAP2 (UniProt O75323)
inactive: [1] -0.014 | crizotinib 0.083 | [2] 0.068 | [3] -0.041 | gandotinib 0.057 | [4] 0.105 | doramapimod -0.106 | ispinesib 0.162 | bafetinib 0.02 | [5] -0.012 | nilotinib 0.082 | [6] -0.003 | dasatinib 0.05 | [7] -0.033 | [8] 0.185 | [9] 0.025 | tipifarnib -0.058 | mubritinib 0.041

NIFK (UniProt Q9BYG3)
inactive: [1] 0.023 | crizotinib -0.032 | [2] -0.428 | [3] 0.328 | duvelisib 0.053 | gandotinib 0.347 | tozasertib -0.017 | [4] -0.012 | doramapimod 0.021 | ispinesib -0.072 | bafetinib 0.103 | [5] -0.091 | nilotinib -0.222 | [6] 0.189 | dasatinib -0.05 | [7] 0.238 | [8] -0.087 | [9] -0.084 | tipifarnib 0.084 | mubritinib -0.283

NENF (UniProt Q9UMX5)
inactive: [1] -0.023 | crizotinib 0.086 | [2] 0.058 | [3] 0.004 | duvelisib 0.062 | gandotinib 0.005 | tozasertib -0.002 | [4] -0.028 | doramapimod -0.002 | ispinesib 0.009 | bafetinib -0.053 | [5] -0.089 | nilotinib -0.015 | [6] 0.028 | dasatinib 0.061 | [7] -0.015 | [8] 0.013 | [9] 0.054 | tipifarnib 0.015 | mubritinib -0.005

NOP2 isoform 4 (UniProt P46087)
inactive: [1] 0 | crizotinib -0.127 | [2] -0.25 | [3] 0.673 | gandotinib 0.231 | [4] -0.022 | doramapimod 0.219 | ispinesib 0.163 | bafetinib 0.274 | [5] -0.065 | nilotinib 0.111 | [6] 0.066 | dasatinib 0.344 | [7] 0.096 | [8] -0.568 | [9] -0.319 | tipifarnib 0.214 | mubritinib -0.304

NFU1 (UniProt Q9UMS0)
inactive: [1] -0.024 | crizotinib 0.059 | [2] 0.083 | [3] -0.026 | duvelisib 0.064 | gandotinib -0.018 | tozasertib 0.039 | [4] -0.01 | doramapimod 0.009 | ispinesib 0.031 | bafetinib -0.011 | [5] -0.031 | nilotinib 0.024 | [6] 0.015 | dasatinib 0.029 | [7] -0.009 | [8] 0.091 | [9] 0.046 | tipifarnib 0 | mubritinib 0

NME2P1 (UniProt O60361)
inactive: [1] -0.093 | crizotinib -0.066 | [2] -0.114 | [3] 0.079 | gandotinib -0.346 | doramapimod 0.27 | ispinesib -0.119 | bafetinib 0.058 | [5] 0.059 | nilotinib -0.236 | [6] -0.014 | [7] -0.107 | [8] -0.081 | [9] -0.013 | tipifarnib -0.055 | mubritinib 0.073

NIBAN1 (UniProt Q9BZQ8)
active: [6] -0.383
inactive: [1] 0.02 | crizotinib -0.296 | [2] 0.014 | [3] 0.097 | gandotinib -0.143 | [4] 0.116 | doramapimod 0.001 | ispinesib -0.148 | bafetinib -0.013 | [5] 0.121 | nilotinib -0.041 | dasatinib -0.14 | [7] -0.057 | [8] 0.001 | [9] -0.035 | tipifarnib -0.04 | mubritinib 0.013

NRDC isoform 2 (UniProt O43847)
inactive: [1] 0.034 | crizotinib -0.065 | [2] 0.054 | [3] -0.034 | gandotinib -0.029 | [4] 0.089 | doramapimod -0.036 | ispinesib -0.022 | bafetinib 0.022 | [5] 0.072 | nilotinib -0.019 | [6] -0.023 | dasatinib -0.133 | [7] 0.011 | [8] -0.01 | [9] -0.044 | tipifarnib -0.129 | mubritinib 0.088

Two consecutive records already listed:
NME2P1 (UniProt O60361)
inactive: [1] -0.093 | crizotinib -0.066 | [2] -0.114 | [3] 0.079 | gandotinib -0.346 | doramapimod 0.27 | ispinesib -0.119 | bafetinib 0.058 | [5] 0.059 | nilotinib -0.236 | [6] -0.014 | [7] -0.107 | [8] -0.081 | [9] -0.013 | tipifarnib -0.055 | mubritinib 0.073

NIBAN1 (UniProt Q9BZQ8)
active: [6] -0.383
inactive: [1] 0.02 | crizotinib -0.296 | [2] 0.014 | [3] 0.097 | gandotinib -0.143 | [4] 0.116 | doramapimod 0.001 | ispinesib -0.148 | bafetinib -0.013 | [5] 0.121 | nilotinib -0.041 | dasatinib -0.14 | [7] -0.057 | [8] 0.001 | [9] -0.035 | tipifarnib -0.04 | mubritinib 0.013

More results follow.

NME7 (UniProt Q9Y5B8)
inactive: [1] -0.187 | crizotinib -0.136 | [2] -0.027 | [3] 0.046 | gandotinib -0.091 | [4] 0.056 | doramapimod 0.033 | ispinesib -0.117 | bafetinib -0.14 | [5] 0.071 | dasatinib -0.245 | [8] -0.044 | [9] 0.009 | tipifarnib -0.001 | mubritinib -0.279

NPM3 (UniProt O75607)
inactive: [1] -0.125 | crizotinib 0.001 | [3] -0.043 | gandotinib 0.109 | [4] -0.011 | doramapimod 0.024 | ispinesib 0.022 | bafetinib 0.017 | [5] -0.027 | nilotinib -0.045 | [6] 0.062 | dasatinib 0.101 | [7] -0.121 | [8] 0.043 | [9] -0.028 | tipifarnib 0.071 | mubritinib -0.035

NOMO3 (UniProt P69849)
inactive: [1] -0.039 | crizotinib 0.077 | [2] 0.084 | doramapimod 0.019 | bafetinib -0.111
